Test results from PMC7819943, “Rice protein-binding microarrays: a tool to detect cis-acting elements near promoter regions in rice”.
Some of the results follow.

Amino acid sequences for entries named in this document (tags omitted).
UniProt Q0JBA9, entry or part of it: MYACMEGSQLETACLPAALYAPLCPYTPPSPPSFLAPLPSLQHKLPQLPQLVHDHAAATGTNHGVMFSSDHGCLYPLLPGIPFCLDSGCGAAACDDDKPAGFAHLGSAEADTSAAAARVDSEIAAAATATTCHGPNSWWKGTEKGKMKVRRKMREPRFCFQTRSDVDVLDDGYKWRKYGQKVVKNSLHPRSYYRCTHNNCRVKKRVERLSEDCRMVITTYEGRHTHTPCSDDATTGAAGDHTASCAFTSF

These sequences were tested against OsWRKY34 (Oryza sativa, UniProt Q0JBA9 1-250) (assay: protein-binding microarray (RPBM); PBS, 2% BSA, 51.3 ng/ul salmon testes DNA, 50 uM zinc acetate, 200 nM TF, 25 C, 1 h; high values mean tight binding). Conditions: protein: recombinant; tags: N-terminal polyhistidine and DsRed monomer fusion (pET32a); label: CyDye5-dUTP incorporated in the synthesized complementary strand; 3' TTTTT single-stranded linker to array surface; dsDNA, one strand shown.
Procedure, shortened: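 An Axon 4000B scanner gave the binding signal as per-feature fluorescence intensity in arbitrary units. This followed washing of a custom Agilent array that had been incubated for 1 h at 25 °C with 200 nM protein in PBS, 2% BSA, salmon testes DNA and 50 µM zinc acetate. The proteins were transcription factors fused at the N-terminus to polyhistidine and DsRed, expressed in E. coli BL21-CodonPlus and purified on Ni–NTA.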
For “GCGTTTCCCGTCGTTGGCGTCAAGGTAGCCGCAGGTGCGGCGGAGTCACCTAGTGCAG”, the binding signal was 8390 fluorescence intensity (a.u.).
With “TATCCAACGCGGCATTACCCGGTGCAACGTACGGACATTTCGGAGTCACCTAGTGCAG” the binding signal was 8990 fluorescence intensity (a.u.).
With “AATACACTGTTTCGCTTATTCCCACGTTAGGCTGGAGCTGCGGAGTCACCTAGTGCAG” the binding signal was 9400 fluorescence intensity (a.u.).
With “GATCTGCCATCTTTGTATATTAAGTTTTAGTATTCATTAGCGGAGTCACCTAGTGCAG” the binding signal was 8280 fluorescence intensity (a.u.).
With “CTCCGTTATCGTTTGACTTTCTTTTCATTAATATTTTAAACGGAGTCACCTAGTGCAG” the binding signal was 15600 fluorescence intensity (a.u.).
In the case of “GGCGCGCGCACGCCGGCCAATCCTACCACATCCCCGGCCTCGGAGTCACCTAGTGCAG”, the binding signal is reported as 8850 fluorescence intensity (a.u.).
“TTGTTGCTTCGCTTGGCTTTGCTACCGCTTCGTACCTTCCCGGAGTCACCTAGTGCAG” was tested, and the binding signal was 9700 fluorescence intensity (a.u.).
For “CCAGCGACCTCCTCCCCGCGCACGTGCCGCAGCCGGCTATCGGAGTCACCTAGTGCAG”, the binding signal was 8170 fluorescence intensity (a.u.).
In the case of “TTGTGCTTAGTTCGGATGGGATTGTTCTGATATTGTTCCACGGAGTCACCTAGTGCAG”, the binding signal is reported as 8790 fluorescence intensity (a.u.).
“TGGAGACTAGGGTGTGTGCCTCCGGTTTTTATTTTTTTTCCGGAGTCACCTAGTGCAG” was tested, and the binding signal was 11100 fluorescence intensity (a.u.).
With “AGGTCGCCCATCCAGCCTCTGCGTTTAGTTGTTTGACCAACGGAGTCACCTAGTGCAG” the binding signal was 8830 fluorescence intensity (a.u.).
For “CTCCTCCCTACCCATCTCCTCCGTTCCGCGCATCGCTACACGGAGTCACCTAGTGCAG”, the binding signal was 8310 fluorescence intensity (a.u.).
For “CGCACACATCTTCCAAATCGAATGCTGGTAGGATCTGAGACGGAGTCACCTAGTGCAG”, the binding signal was 8860 fluorescence intensity (a.u.).
In the case of “GTACATGCATTATCCATATCTCTAAATTTAGCAATCACTTCGGAGTCACCTAGTGCAG”, the binding signal is reported as 9480 fluorescence intensity (a.u.).
“ACCATTTAACTCTCCCTTCGGCTGCAGCTGTGCATATGGACGGAGTCACCTAGTGCAG” was tested, and the binding signal was 10200 fluorescence intensity (a.u.).
“GTCGTCGCTCCGTTCCACCGTTGGTTCGCAACCGAACCAACGGAGTCACCTAGTGCAG” was tested, and the binding signal was 8600 fluorescence intensity (a.u.).
“AGGCAGCGTCGTGGTGGTGACTCCGTGCTGACTCGACCGTCGGAGTCACCTAGTGCAG” was tested, and the binding signal was 8110 fluorescence intensity (a.u.).
In the case of “GTTGCTTTTCACCTTTTCTTTTTACTCAGGCTCACCCAGACGGAGTCACCTAGTGCAG”, the binding signal is reported as 8100 fluorescence intensity (a.u.).
For “GAGCCACTGATGCACGTGAGTTTTCCATGTTTGGTGATTTCGGAGTCACCTAGTGCAG”, the binding signal was 8070 fluorescence intensity (a.u.).
For “GCACCACATCCTGCTCCTCGCCGATCGTCCTTGTAGGCTACGGAGTCACCTAGTGCAG”, the binding signal was 8340 fluorescence intensity (a.u.).
For “ATCACTATTATTATAGTCATTGTTATGTATGTTTCATCTTCGGAGTCACCTAGTGCAG”, the binding signal was 9990 fluorescence intensity (a.u.).
In the case of “GGATCCACCCGCTTCTCTGACCGCGCGCCACGTTCGCTGACGGAGTCACCTAGTGCAG”, the binding signal is reported as 9270 fluorescence intensity (a.u.).
For “TCCAGCGGTGGTTGAACATGTCTTTTGTTGTGAATATTTACGGAGTCACCTAGTGCAG”, the binding signal was 9290 fluorescence intensity (a.u.).
“GCCTGTTCACTTTGATGTCATTTTCAACCTTATCAAATTTCGGAGTCACCTAGTGCAG” was tested, and the binding signal was 13100 fluorescence intensity (a.u.).
For “TACTTGTCTCCTGAGATTTTCCCCGTCTTTCCACTGTTCTCGGAGTCACCTAGTGCAG”, the binding signal was 8560 fluorescence intensity (a.u.).
“GGTGGCGCCTACGTGGCTAGTTTGACTTGGTCTTCATCTACGGAGTCACCTAGTGCAG” was tested, and the binding signal was 9460 fluorescence intensity (a.u.).
“CGTTTCTTTCTCGGCCCATCCAACACGCGCTCTTGCTTGACGGAGTCACCTAGTGCAG” was tested, and the binding signal was 12200 fluorescence intensity (a.u.).
In the case of “CATTCTTTCATTCCTCACTCATCACTCAACGGTCCAGATTCGGAGTCACCTAGTGCAG”, the binding signal is reported as 8530 fluorescence intensity (a.u.).
For “GGCCGCGGCGGTGCGACGAAGAGCGGCGTCGGACAAGGGCCGGAGTCACCTAGTGCAG”, the binding signal was 35900 fluorescence intensity (a.u.).
“GACCATCTCGCGTCGCTCCTCCGGCCATCTCTTCAGCTCCCGGAGTCACCTAGTGCAG” was tested, and the binding signal was 8630 fluorescence intensity (a.u.).
For “AGGGTGGGCGTGATGGAGTTGGGTCGGCCGGGGTGTCCGGCGGAGTCACCTAGTGCAG”, the binding signal was 11700 fluorescence intensity (a.u.).
In the case of “TTTGTCGCGTGATTTTTTTTCCTTCGTATTTGACGTTTTTCGGAGTCACCTAGTGCAG”, the binding signal is reported as 10100 fluorescence intensity (a.u.).
For “AGACTCTTCTTCCCATATTCCTTAATTTTTAATTTTATTTCGGAGTCACCTAGTGCAG”, the binding signal was 9190 fluorescence intensity (a.u.).
“TTACTTTTCCCACCTATCTTCACTACTTATCCAATCACAACGGAGTCACCTAGTGCAG” was tested, and the binding signal was 9810 fluorescence intensity (a.u.).
For “CCTCATGTACCGCACCTCCTCATCCTGTAATTTCGCGCGCCGGAGTCACCTAGTGCAG”, the binding signal was 10100 fluorescence intensity (a.u.).
For “TTGTGAGGCGATTTCCTAGTATTCAGTGTAGTAATGTTACCGGAGTCACCTAGTGCAG”, the binding signal was 8090 fluorescence intensity (a.u.).
For “ACAATATTTTGACTGTTTCGTTAATTTTTATGCCGTTTAGCGGAGTCACCTAGTGCAG”, the binding signal was 8470 fluorescence intensity (a.u.).
In the case of “GTGTGGTGTTGTGGGAGCATGCAGCATGCTACCACCTATTCGGAGTCACCTAGTGCAG”, the binding signal is reported as 8630 fluorescence intensity (a.u.).
With “TTTATCTAAATGCCCGGATTGCTCTTTCTCTTTCCTTCTTCGGAGTCACCTAGTGCAG” the binding signal was 11800 fluorescence intensity (a.u.).
In the case of “TGATGTCCCATACTTTTTTTTATTATAGGTTTGTTTATTTCGGAGTCACCTAGTGCAG”, the binding signal is reported as 8250 fluorescence intensity (a.u.).
In the case of “TCCACCTCACTCTCACTGATCTTGTCTCTCTTTCTCTTTCCGGAGTCACCTAGTGCAG”, the binding signal is reported as 12400 fluorescence intensity (a.u.).
“CATTGCCCTGCTTAGTTTCTTTCAACATTTCAGTCTGTAGCGGAGTCACCTAGTGCAG” was tested, and the binding signal was 9370 fluorescence intensity (a.u.).
